Laboratory results published in PMC6010101, “Cloning, expression and purification of the α-carbonic anhydrase from the mantle of the Mediterranean mussel, Mytilus galloprovincialis” (Journal of Enzyme Inhibition and Medicinal Chemistry, 2017).

By UniProt entry, the sequences of proteins in these tests, tags left out. Residues count along the entry.
UniProt A0A0N9FGL8, 2-256: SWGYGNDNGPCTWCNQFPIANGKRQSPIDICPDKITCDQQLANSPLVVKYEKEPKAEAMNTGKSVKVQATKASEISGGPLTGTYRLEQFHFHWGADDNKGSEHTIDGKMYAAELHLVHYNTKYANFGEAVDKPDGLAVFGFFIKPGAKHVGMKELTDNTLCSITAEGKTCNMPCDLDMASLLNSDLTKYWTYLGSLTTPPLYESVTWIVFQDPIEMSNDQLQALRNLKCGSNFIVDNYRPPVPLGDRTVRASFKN

Target: T1, rec-MgaCA (Mytilus galloprovincialis, UniProt A0A0N9FGL8)
T1 construct: gene CAII
Details: CO2 1.7-17 mM; 10-20 mM TRIS pH 8.3; 20 mM Na2SO4; 15 min pre-incubation at room temperature; Cheng-Prusoff

SMILES: CC(=O)Nc1nnc(S(N)(=O)=O)s1 [AAZ, acetazolamide]
- KI (acetazolamide) (nM): 361 ± 5% nM
